Test results: PubChem BioAssay AID493014 (National Center for Advancing Translational Sciences (NCATS), 2011)
This is one part of the list. These are further read-outs of the screen, such as a control signal, another cell line or another target. No call is given for them. Most of these compounds were active or inconclusive in the main read-out, so they are no random draw. Words in brackets tell the shape of the fitted curve; partial curves, single points and poor fits give uncertain potencies.

Test: qHTS Assay to Find Inhibitors of Chronic Active B-Cell Receptor Signaling
Settings: ABC-DLBCL IkBa-CBG/CBR reporter, luminescence ratio (green luciferase fused to IkBa over red control in TMD8 lymphoma cells), 4 h
Method in brief: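 Compounds up to 46 uM were incubated four hours with TMD8 cells whose green CBG68 luciferase is fused to IkappaBalpha; red CBR luminescence normalised the signal, and concentration-effect curves were fitted to fusion, red and ratio data.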

[1] = measured here: CBR red luminescence, cell number
[2] = measured here: IkBa-CBG green luminescence

Compound | AC50 [1] | AC50 [2]
COc1ccc2c(c1)CC/C(=C/c1cc(OC)c(OC)c(OC)c1)C2=O | 17.8 µM [falling, partial curve, poor fit] | 
S=C(Nc1cccnc1)NC1CC2CCC1C2 (stereo not given) | 28.2 µM [falling, single point] | 
O=C(NC1CSCC1OC(=O)c1ccccc1)c1ccccc1 (stereo not given) | 35.5 µM [falling, single point] | 
O=[N+]([O-])c1ccc(N2CCN(c3ccccn3)CC2)c(Cl)c1 | 2 µM [rising, full curve, poor fit] | 
CC(=O)c1sc2nsc(SCCN3CCOCC3)c2c1N | 5.62 µM [rising, full curve] | 
CCOC(=O)c1cc(-c2ccccc2)n(CCCC(=O)Nc2ccc(C(C)C)cc2)c1C | 5.62 µM [rising, single point] | 
Cc1c(C)n2c(SCC(=O)N3CCCCC3)nnc2[nH]c1=O | 3.66 µM [rising, partial curve, poor fit] | 
Cc1ccc(CSc2nnc(SCC(=O)N/N=C/c3ccc(C(=O)O)cc3)s2)cc1 | 6.31 µM [falling, single point] | 
Fc1ccccc1N=C1NN=C(c2ccccc2)CS1 | 11.2 µM [falling, partial curve] | 
COC(=O)COc1ccc(S(=O)(=O)Nc2ccc(NC(C)=O)cc2)cc1C | 29.1 µM [rising, single point] | 
O=C(CCc1ccccc1F)N1CCN(c2ccccc2)CC1 | 14.1 µM [rising, partial curve, poor fit] | 
O=S(=O)(/C=C/c1ccccc1)N1CCc2ccccc2C1 | 35.5 µM [falling, single point] | 
CCCCNC(=O)N1CCOCCOCCN(C(=O)NCCCC)CCOCCOCC1 | 6.51 µM [falling, single point] | 4.61 µM [rising, partial curve, poor fit]
Cc1cccc(-c2noc(-c3ccc4c(c3)OCO4)n2)c1 | 17.8 µM [rising, single point] | 25.1 µM [falling, single point]
O=C(OCCN1CCCC1=O)c1cc(F)c(F)c(F)c1F | 29.1 µM [falling, single point] | 
CC(=O)Nc1cccc(NC(=O)c2ccc(COc3ccccc3)cc2)c1 | 0.316 µM [falling, full curve, poor fit] | 
O=C(NCc1ccc2c(c1)OCO2)Nc1ccc2nsnc2c1 | 3.16 µM [falling, full curve, poor fit] | 
O=C(O)c1ccc(NC(=O)c2cn(-c3ccccc3)nc2-c2ccc(Cl)cc2)cc1 | 11.2 µM [falling, partial curve, poor fit] | 

A few values from the entries so far:
AC50 [1] with O=S(=O)(/C=C/c1ccccc1)N1CCc2ccccc2C1 is entered as 35.5 µM [falling, single point]
AC50 [1] with Cc1ccc(CSc2nnc(SCC(=O)N/N=C/c3ccc(C(=O)O)cc3)s2)cc1 is entered as 6.31 µM [falling, single point]
